Reference: PubChem BioAssay AID504834 (National Center for Advancing Translational Sciences (NCATS), 2011)
Among all 320,000 compounds or so, about 22,000 (6.9%) were called active. Inconclusive results, whose numbers are uncertain, are shown with a selection of clear calls. The call rests on the fitted dose curve; in most records, active means well fitted inhibition curve with a large enough effect; inconclusive means small, poorly fitted or top-dose-only effect, or another doubt; inactive means no such curve, though single readings can be large or run the other way. Where the call is inconclusive, the potency comes from a doubtful curve fit.

Assay: Primary qHTS for delayed death inhibitors of the malarial parasite plastid, 96 hour incubation
Settings: P. falciparum luciferase reporter growth; series mostly up to 28.7 µM; activity change, negative = inhibition: at the top concentration
Method in brief: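 P. falciparum expressing integrated firefly luciferase, in erythrocytes at 2% hematocrit, 0.05% parasitemia, incubated with compounds 96 h at 37 C, 5% CO2. Growth inhibition read as loss of luminescence; two-generation exposure targets delayed-death apicoplast inhibitors.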
On the % scale 0 is the no-effect control and ±100 the full control effect; potency means the concentration at half of the fitted maximal effect.

SMILES	Potency	activity change, negative = inhibition
CCCN(C(=O)COC(=O)c1[nH]c(C)c(C(=O)OC)c1C)c1c(N)n(Cc2ccccc2)c(=O)[nH]c1=O	inconclusive: 11.7 µM [inhibitor, partial curve, poor fit]	
C/C(=N\Nc1nc2ccccc2[nH]1)c1ccc(Cl)s1	inconclusive: 0.928 µM [inhibitor, partial curve, poor fit]	
CCn1cc(C(=O)NCc2ccc3c(c2)OCO3)c(=O)c2cc(S(=O)(=O)N(C)C)ccc21	inconclusive: 18.5 µM [inhibitor, single point]	
O=C(c1cccc(N2C(=O)C3C4C=CC(C4)C3C2=O)c1)N1CCN(c2ccccc2)CC1 (stereo unspecified)	inconclusive: 10.4 µM [inhibitor, single point]	
O=C1c2ccccc2C(=O)N1CCCCSc1nc2ccccc2c(=O)n1CCCN1CCOCC1	inconclusive: 18.5 µM [inhibitor, single point]	
Cc1nnsc1C(=O)Nc1cccc(Cl)c1		inactive: 10.9%
O=C(Nc1ccccc1)C1=C[C@@H](c2ccc(Br)cc2)C[C@@H](OCCCCO)O1	inconclusive: 3.7 µM [inhibitor, full curve]	
CN(c1ccccc1)S(=O)(=O)c1ccc(C(=O)Nc2nccs2)cc1	inconclusive: 5.22 µM [inhibitor, partial curve, poor fit]	
O=C(Cn1nc(-c2nn(CC(=O)c3ccccc3)c3[n+]2CCCCC3)[n+]2c1CCCCC2)c1ccccc1		inactive: -23%
CCc1cccc(C)c1NC(=O)CCCN1C(=O)CN(C)C1=O		inactive: -25.3%
Cc1occc1C(=O)NNC(=O)Nc1ccc(F)cc1F	inconclusive: 0.828 µM [inhibitor, partial curve, poor fit]	
CN(CC(=O)Nc1ccc(F)c(F)c1F)C(=O)Cn1cnc2c1c(=O)n(C)c(=O)n2C		inactive: -15%
COc1ccc(-n2c(C)cc(/C=C(\C#N)C(=O)NCc3ccco3)c2C)cc1	inconclusive: 7.38 µM [inhibitor, partial curve, poor fit]	
Cc1cccc(Nc2ccc(S(=O)(=O)N3CCOCC3)cc2[N+](=O)[O-])c1	inconclusive: 9.28 µM [inhibitor, partial curve, poor fit]	
CCCN1CCN(C(=O)c2ccc(F)c(S(=O)(=O)N3CCOCC3)c2)CC1		inactive: 6.18%
Cc1ccc(Sc2nc([N+](=O)[O-])nn2C)cc1	inconclusive: 18.5 µM [inhibitor, single point]	
O=C(NCCCO)C(=O)Nc1cc2c3c(c1)CCN3C(=O)CC2		inactive: 81.2%
O=C(CCN1CCCCC1=O)NC1CCCN(Cc2ccc(Cl)cc2)C1 (stereo unspecified)	inconclusive: 0.165 µM [inhibitor, partial curve, poor fit]	
Cc1nc2c(C(=O)N3CCOCC3)cnn2c(C)c1Cc1ccc(Cl)cc1	inconclusive: 4.15 µM [inhibitor, single point]	
COc1ccc(-c2nc3ccc(C)cc3c(=O)o2)cc1OC	inconclusive: 13.1 µM [inhibitor, single point]	
COc1ccc(-c2nn(-c3ccccc3)cc2C(=O)N(C)CC(=O)Nc2ccc(N3CCOCC3)cc2)cc1		inactive: 6.46%
Cc1ccc(NC(=O)c2ccc(OC(=O)C(C)Oc3ccc(Cl)cc3C)cc2)cc1 (stereo unspecified)	inconclusive: 18.5 µM [inhibitor, partial curve, poor fit]	

SMILES	Potency	activity change, negative = inhibition
COc1ccc(C(=O)N/N=C(/C)c2cccc(NC(=O)c3ccncc3)c2)cc1OC	inconclusive: 13.1 µM [inhibitor, partial curve]	
O=C1C2C3C=CC(C3)C2C(=O)N1CNc1ccc(O)cc1 (stereo unspecified)	inconclusive: 18.5 µM [inhibitor, single point]	
C=C(CC[C@@H](C)[C@H]1CCC2[C@]1(C)CC[C@]13C[C@@]14CCC(OC(=O)/C=C/c1ccc(O)c(OC)c1)C(C)(C)[C@@H]4CC[C@@]23C)C(C)C (stereo partly specified)	inconclusive: 2.62 µM [inhibitor, full curve, poor fit]	
CCN1CCCC1CNS(=O)(=O)c1ccc(Cl)c(C(F)(F)F)c1 (stereo unspecified)		inactive: 1.99%
COC(=O)C1=C(c2ccc(F)cc2OCc2ccccc2)C[C@@H]2CC[C@H]1N2C(=O)N1CCCCC1	inconclusive: 2.62 µM [inhibitor, full curve]	
Cn1cnnc1SCc1ccccc1[N+](=O)[O-]		inactive: 15.1%
CC(C)C1Cc2c(C#N)c(N)n(C)c(=S)c2CO1 (stereo unspecified)	inconclusive: 14.7 µM [inhibitor, partial curve, poor fit]	
COc1ccc(OC)c(S(=O)(=O)Nc2cc3c4c(c2)CCC(=O)N4CCC3)c1	inconclusive: 14.7 µM [inhibitor, partial curve, poor fit]	
Cc1cc(=O)oc2cc(OC(C)C(=O)NC3(C#N)CCCCC3)ccc12 (stereo unspecified)		inactive: 15.3%
CCCSC1=C(C#N)C(c2cccnc2)C(C(=O)OCC)=C(c2ccccc2)N1 (stereo unspecified)	inconclusive: 0.0165 µM [inhibitor, full curve, poor fit]	
CC1CCN(Cc2nnnn2-c2cccc([N+](=O)[O-])c2)CC1	inconclusive: 18.5 µM [inhibitor, single point]	
CC(=O)N1CCSc2ccc(S(=O)(=O)NCCc3cccc(C)c3)cc21	inconclusive: 11.7 µM [inhibitor, single point]	
CC(=O)C1=C(C)Nc2ncnn2C1c1ccc(C)cc1 (stereo unspecified)	inconclusive: 18.5 µM [inhibitor, single point]	
COc1ccc(C(CNC(=O)COc2ccccc2OC)N(C)C)cc1OC (stereo unspecified)	inconclusive: 11.7 µM [inhibitor, partial curve]	
O=C(Nc1ccccc1C(=O)N1CCCC1)c1cccc(S(=O)(=O)N2CCCCCC2)c1	inconclusive: 0.0828 µM [inhibitor, full curve, poor fit]	
COc1cccc(NC(=O)CS(=O)(=O)Cc2nc(-c3ccc(C)cc3)oc2C)c1	inconclusive: 18.5 µM [inhibitor, partial curve, poor fit]	
N#C/C(=C\c1ccc(OCc2ccc(F)cc2)cc1)C(=O)Nc1cccc(C(=O)O)c1		inactive: -0.817%
COc1cc(C2c3[nH]c4ccccc4c3C[C@@H]3C(=O)N(Cc4ccco4)CC(=O)N23)cc(OC)c1OC (stereo partly specified)	active: 3.7 µM	
COc1cc2nc(N3CCN(c4cc(C)ccc4C)CC3)nc(N)c2cc1OC		inactive: 0%
Cc1ccc(N(CC(=O)Nc2ccc3c(c2)OCCO3)S(C)(=O)=O)cc1		inactive: 23.8%
COC(=O)c1c(-c2cccc3ccccc23)csc1NC(=O)Cc1ccc(OC)c(OC)c1	active: 2.62 µM	
O=NCc1ccc([N+](=O)[O-])o1	active: 13.5 µM	

SMILES	Potency	activity change, negative = inhibition
COc1ccc(N2C(=O)CSC23C(=O)Nc2ccccc23)cc1 (stereo unspecified)	inconclusive: 1.17 µM [inhibitor, single point]	
CCn1cc(C(=O)NCCCN2CC(C)CC(C)C2)c(=O)c2cc(S(=O)(=O)N(C)C3CCCCC3)ccc21 (stereo unspecified)		inactive: -81.6%
CCCn1cc(CN2CCC(n3nccc3NC(=O)CCOc3ccccc3)CC2)c(C)n1	inconclusive: 14.7 µM [inhibitor, partial curve]	
O=C(CSc1nnc(-c2ccco2)n1Cc1ccccc1)c1ccccc1	inconclusive: 11.7 µM [inhibitor, single point]	
O=C(NC1CCS(=O)(=O)C1)c1ccc(S(=O)(=O)N2CCCC2)cc1 (stereo unspecified)	inconclusive: 0.117 µM [inhibitor, full curve, poor fit]	
CC(C)n1c(CN2CCN(Cc3ccccc3)CC2)nc2ccccc21	inconclusive: 9.28 µM [inhibitor, single point]	
O=C(/C=C/c1ccccc1Cl)Nc1ccc(-c2nnc3n2CCCCC3)cc1	inconclusive: 8.28 µM [inhibitor, partial curve, poor fit]	
CCC(=O)N1c2ccccc2NC2=C(C(=O)CC(C)(C)C2)C1c1ccc(O)c(OC)c1 (stereo unspecified)		inactive: 11.4%
CCCCNC(=S)Nc1ccc(Cl)cc1		inactive: 30.5%
CNC(=S)NNC(=O)c1ccccc1Br	active: 9.28 µM	
N#CC1=C(N)S[C@@H](C(=O)c2ccc(F)cc2)[C@@H]1c1cccs1		inactive: -20.3%
CCCCn1c(O)c(C(CC)=NCc2ccc(F)cc2)c(=O)[nH]c1=O	inconclusive: 18.5 µM [inhibitor, partial curve, poor fit]	
NC(=O)C1CC(=O)N(Cc2ccc3c(c2)OCO3)C(=Nc2ccccc2)S1 (stereo unspecified)	active: 14.7 µM	
Cc1cccc2c(C(=O)N3CCN(c4ccccn4)CC3)cc(-c3cccc(Br)c3)nc12	inconclusive: 3.7 µM [inhibitor, single point]	
COC(=O)C1(Cc2ccccc2)NC(c2ccc(F)cc2)C2C(=O)N(C)C(=O)C21 (stereo unspecified)		inactive: 34.4%
Cc1cccc(C)c1NC(=O)CCCSc1nnc(-c2ccc(F)cc2)n1-c1ccccc1	active: 11.7 µM	
O=C(COc1ccc(C(F)(F)F)cc1[N+](=O)[O-])Nc1cccc(C(F)(F)F)c1	inconclusive: 1.47 µM [inhibitor, partial curve, poor fit]	
C[C@H]1CN=C2N(CCNC(=O)CCC3CCCCC3)[C@H](Cc3ccc(O)cc3)CN21	active: 11.7 µM	
COC(=O)c1ccc(NC(=S)NCCc2cccc(C)c2)cc1	inconclusive: 14.7 µM [inhibitor, partial curve, poor fit]	
O=C(CC(C(=O)N1CCc2ccccc21)n1ccnc1)NCC1CCCO1 (stereo unspecified)	inconclusive: 18.5 µM [inhibitor, single point]	
COc1ccc(-c2c[n+]3c4n2CCCCC4=C(c2ccc(Br)cc2)C3)cc1	active: 2.08 µM	
NC1=NC(=O)CC(C(=O)Nc2cccc3ccccc23)S1 (stereo unspecified)	inconclusive: 4.15 µM [inhibitor, partial curve]	

Among those listed so far, these have a CF3 group:
SMILES	Potency	activity change, negative = inhibition
CCN1CCCC1CNS(=O)(=O)c1ccc(Cl)c(C(F)(F)F)c1 (stereo unspecified)		inactive: 1.99%
O=C(COc1ccc(C(F)(F)F)cc1[N+](=O)[O-])Nc1cccc(C(F)(F)F)c1	inconclusive: 1.47 µM [inhibitor, partial curve, poor fit]	
